Values from PubChem BioAssay AID1259424 (University of Nebraska Medical Center, 2018).

- Assay: 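Find knockdowns that reproduce the expression shifts seen after KSR1 loss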 (primary screen)
- Cells: human HCT116 colon cancer cells
- Knock-down reagent: siRNA pool against human genes, 50 nM
- Measurement: 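Six signature mRNAs by branched-DNA multiplex assay, scaled to two housekeeping genes and non-targeting median, log2; matched to mean KSR1 knockdown profile by Pearson correlation and euclidean distance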
- Scale: mean correlation with KSR1 profile: higher = expression change more like KSR1 knockdown; mean distance from KSR1 profile: higher = expression change less like KSR1 knockdown
The deposit covers about 14,000 reagents; this is a random part of them. 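Higher correlation or smaller distance means closer resemblance to KSR1 loss; control wells, including KSR1 knockdowns, recur on many plates.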 Further read-outs or replicates are left out here. Not given: the time to read-out.

gene symbol | mean correlation with KSR1 profile | mean distance from KSR1 profile
PPCS | 0.379 | 2.25
SFXN3 | 0.162 | 2.38
PDCD4 | 0.26 | 1.93
MDH2 | -0.0571 | 3.37
SLC43A1 | 0.337 | 2.06
KIF11 | 0.0987 | 2.05
SGPP1 | 0.473 | 1.36
CHCHD6 | 0.321 | 1.46
ZNHIT6 | -0.738 | 2.57
DNAH7 | -0.153 | 2.41
PAQR7 | 0.53 | 1.12
ZHX3 | -0.692 | 1.45
SNTG1 | -0.338 | 3.07
SOX17 | 0.654 | 0.543
DCAF4 | 0.349 | 2.12
RPS19 | -0.115 | 1.15
MAOA | -0.0483 | 1.55
IFNA13 | 0.428 | 1.46
NRIP3 | 0.0226 | 1
ENO3 | -0.362 | 2.58
BCL3 | 0.136 | 2.38
FAM114A2 | -0.124 | 2.11
SEPTIN1 | 0.855 | 0.596
FKBP6 | -0.339 | 2.8
ESX1 | 0.23 | 1.94
CSN3 | -0.353 | 2.64
VANGL1 | 0.536 | 1.29
XPO4 | 0.052 | 1.88
BIN3 | -0.516 | 2.51
NHERF1 | 0.269 | 2.06
TYW1 | -0.109 | 2.5
RASL12 | 0.0738 | 2.87
FASTKD2 | -0.15 | 3.66
NR1I3 | 0.199 | 1.41
MATN4 | 0.345 | 3.04
TPD52 | -0.447 | 1.81

Entries above whose target name begins with R or r (2):
gene symbol | mean correlation with KSR1 profile | mean distance from KSR1 profile
RPS19 | -0.115 | 1.15
RASL12 | 0.0738 | 2.87

Continued:
gene symbol | mean correlation with KSR1 profile | mean distance from KSR1 profile
CXADR | 0.25 | 1.22
TMPRSS5 | 0.254 | 1.84
LMO7 | 0.0403 | 1.31
LBHD1 | -0.377 | 1.76
TMEM62 | 0.131 | 2.05
CAPN3 | -0.213 | 2.42
TMED3 | -0.412 | 5.88
SCCPDH | -0.116 | 1.27
RBMS2 | 0.325 | 1.34
OR10H2 | 0.779 | 1.41
IMP3 | 0.63 | 3.84
MED29 | -0.365 | 1.55
NIT1 | 0.234 | 1.13
VPS16 | 0.304 | 1.05
GLI4 | 0.113 | 1.98
GALNT2 | -0.415 | 2.16
THOC5 | -0.101 | 2.24
GRHL1 | -0.218 | 2.84
KCTD17 | -0.331 | 1.98
ZNF45 | 0.524 | 2.51
MGC40069 (retired record) | -0.187 | 6.13
TBCC | -0.114 | 1.91
GHRL | 0.202 | 3.05
PREP | -0.739 | 1.59
MED16 | -0.386 | 2.93
TMEM45A | -0.256 | 1.58
ARHGEF12 | -0.314 | 1.87
